Results are given in words; binding and its absence hold for the method and conditions named. In cells and extracts the contact can be indirect. A result given as binding can be weak or reduced; the word gives no strength. Tags and fused reporters may be left off the sequences shown.

Sequences of proteins named here, by UniProt entry; tags and fusion partners are left off. A change or cut given only in a name is not applied to a line headed by its entry.
UniProt Q9V3W7: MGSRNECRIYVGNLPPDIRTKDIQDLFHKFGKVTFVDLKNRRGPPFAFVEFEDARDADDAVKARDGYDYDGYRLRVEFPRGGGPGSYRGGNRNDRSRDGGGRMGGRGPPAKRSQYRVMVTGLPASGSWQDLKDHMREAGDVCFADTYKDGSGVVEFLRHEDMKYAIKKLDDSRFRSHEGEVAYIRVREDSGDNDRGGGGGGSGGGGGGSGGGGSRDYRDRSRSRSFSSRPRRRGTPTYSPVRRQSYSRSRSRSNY

Experiment in all cases: co-IP; HEK293 cells co-transfected with bait and candidate (GFP-tagged bait with HA- or HA-Flag-tagged candidate, GFP-TRAP beads; or HA-Flag-tagged bait with GFP-tagged candidate, anti-Flag antibody); lysates treated with RNase A/T1; Western blot with anti-HA and anti-GFP
Test [1] deals with T1, Stau (tagged, expressed in HEK293 cells) (Drosophila melanogaster) (UniProt P25159).
T1 sequence: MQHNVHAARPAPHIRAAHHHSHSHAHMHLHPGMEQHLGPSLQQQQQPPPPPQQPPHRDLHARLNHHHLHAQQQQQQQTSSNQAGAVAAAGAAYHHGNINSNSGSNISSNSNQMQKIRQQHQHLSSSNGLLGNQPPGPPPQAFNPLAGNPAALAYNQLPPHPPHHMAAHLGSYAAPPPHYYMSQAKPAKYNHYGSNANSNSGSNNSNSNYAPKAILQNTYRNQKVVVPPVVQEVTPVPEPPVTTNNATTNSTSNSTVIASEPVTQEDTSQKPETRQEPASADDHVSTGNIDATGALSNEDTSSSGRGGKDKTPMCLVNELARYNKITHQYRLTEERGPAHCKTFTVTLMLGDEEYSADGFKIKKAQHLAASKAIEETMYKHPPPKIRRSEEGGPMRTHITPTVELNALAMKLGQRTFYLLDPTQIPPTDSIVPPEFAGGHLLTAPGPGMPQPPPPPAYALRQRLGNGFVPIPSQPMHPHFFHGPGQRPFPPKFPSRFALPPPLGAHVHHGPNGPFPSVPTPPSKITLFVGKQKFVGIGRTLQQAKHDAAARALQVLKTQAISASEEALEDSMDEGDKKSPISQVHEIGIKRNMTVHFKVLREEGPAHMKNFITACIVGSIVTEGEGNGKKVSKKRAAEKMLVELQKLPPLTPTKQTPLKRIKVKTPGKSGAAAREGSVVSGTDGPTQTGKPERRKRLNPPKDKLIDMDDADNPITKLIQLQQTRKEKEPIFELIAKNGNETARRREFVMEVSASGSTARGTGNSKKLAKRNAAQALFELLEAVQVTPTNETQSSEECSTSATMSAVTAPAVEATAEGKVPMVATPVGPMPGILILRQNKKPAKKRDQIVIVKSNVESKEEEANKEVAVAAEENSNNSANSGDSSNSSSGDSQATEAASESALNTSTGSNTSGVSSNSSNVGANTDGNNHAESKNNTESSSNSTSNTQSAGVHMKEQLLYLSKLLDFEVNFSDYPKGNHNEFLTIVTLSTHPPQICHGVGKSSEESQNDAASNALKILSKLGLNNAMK

In test [2] the target is T2, Glo (tagged, expressed in HEK293 cells) (Drosophila melanogaster) (UniProt Q9VGH5).
T2 sequence: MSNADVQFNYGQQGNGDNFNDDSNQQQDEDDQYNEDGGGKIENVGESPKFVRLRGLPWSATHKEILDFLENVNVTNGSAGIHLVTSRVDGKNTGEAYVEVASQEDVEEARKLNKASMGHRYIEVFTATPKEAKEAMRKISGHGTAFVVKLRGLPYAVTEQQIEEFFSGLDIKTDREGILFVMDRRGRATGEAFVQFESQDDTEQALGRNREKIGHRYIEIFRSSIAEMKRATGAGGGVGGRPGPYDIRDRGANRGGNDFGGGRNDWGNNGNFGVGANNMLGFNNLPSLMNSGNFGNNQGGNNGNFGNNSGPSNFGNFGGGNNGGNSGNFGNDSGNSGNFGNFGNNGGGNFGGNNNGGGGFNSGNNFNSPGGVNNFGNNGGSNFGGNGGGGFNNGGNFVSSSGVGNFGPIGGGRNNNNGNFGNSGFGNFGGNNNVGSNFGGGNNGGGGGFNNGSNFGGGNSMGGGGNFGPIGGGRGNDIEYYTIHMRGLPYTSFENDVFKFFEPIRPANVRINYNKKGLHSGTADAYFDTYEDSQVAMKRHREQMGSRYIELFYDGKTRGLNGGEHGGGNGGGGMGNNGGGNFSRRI

Test [3] concerns the target T3, Hrp48 (tagged, expressed in HEK293 cells) (Drosophila melanogaster) (UniProt P48809).
T3 sequence: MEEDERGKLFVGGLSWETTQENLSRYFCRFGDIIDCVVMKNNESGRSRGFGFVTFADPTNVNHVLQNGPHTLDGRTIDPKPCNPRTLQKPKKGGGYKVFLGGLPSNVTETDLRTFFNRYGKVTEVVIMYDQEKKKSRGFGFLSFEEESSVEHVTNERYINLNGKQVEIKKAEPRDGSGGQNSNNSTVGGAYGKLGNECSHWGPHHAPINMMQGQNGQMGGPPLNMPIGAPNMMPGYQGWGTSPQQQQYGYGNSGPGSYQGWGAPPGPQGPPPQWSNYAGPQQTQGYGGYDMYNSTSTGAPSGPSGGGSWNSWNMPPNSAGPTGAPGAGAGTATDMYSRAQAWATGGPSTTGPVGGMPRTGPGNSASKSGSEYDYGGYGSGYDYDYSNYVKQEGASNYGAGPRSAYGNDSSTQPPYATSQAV

Regarding “SC35 (tagged, expressed in HEK293 cells) (Drosophila melanogaster)”, the binding result in test [1] and in test [2] was “binds” throughout.
On to “SF2 (tagged, expressed in HEK293 cells) (from UniProt Q9V3W7)”, for which the binding result in test [1] and in test [2] was “binds” in each case.
Turning to “CG10077 (tagged, expressed in HEK293 cells) (Drosophila melanogaster)”, the binding result in test [2] was “binds”.
As for “Mahe (tagged, expressed in HEK293 cells) (Drosophila melanogaster)”, the binding result in test [3] and in test [2] was “binds” in each case.

Source of the values: PMC8143644.
